From publication doi:10.1101/2020.10.21.348813
No constants are given. Whether binding was seen depends on the method and setting. Some binding calls cover weakened binding; strength is not graded here.

Key:
Experiment in all cases: native gel or EMSA
[1] = molecular target: LSU A143W-R215A-D216A (LSU8mut) (C. reinhardtii) (UniProt P00877)
[2] = molecular target: LSU E109A-R253A (LSU2mut) (C. reinhardtii) (UniProt P00877)
[3] = molecular target: Rubisco Large Subunit (LSU) (C. reinhardtii (endogenous in C. reinhardtii cells)) (UniProt P00877)

## LSU A143W-R215A-D216A (LSU8mut) (from UniProt P00877 3-475)
[1]
  binding: binds

## LSU E109A-R253A (LSU2mut) (from UniProt P00877 3-475)
[2]
  binding: no binding

## Rubisco Large Subunit (LSU) (from UniProt P00877 3-475)
[3]
  binding: binds
